At least one compound was matched to its structure with a doubt left. Some entries repeat one wording, which the source may state once for all of them.
What was measured:
[1] = system: female AML cells; experiment: In vitro apoptosis of female AML cells (Annexin V staining); format: cell-based, mouse; settings: Annexin V staining (FIG. 4B, 4C)
Source text: (§1) To obtain the results shown in FIG. 1, we isolated bone marrow cells from CD45.1 male mice (FIG. 1A) and CD45.1 female mice (FIG. 1B). Bone marrow cells were applied to hematopoietic stem/progenitor cell isolation using a kit (EasySep™ mouse hematopoietic progenitor cell isolation kit, […], Catalog #19856) followed by red blood cell lysis. Lineage negative (Lin^−) cells were stained with fluorescent antibodies including Sca-1 and c-Kit and then sent to a Beckman Coulter MoFlo Astrios EQ Cell Sorter for sorting Sca-1^+c-Kit^+ cells. These cells were cultured in a CO2 incubator at 37° C. in the presence of MLL-AF9 virus (for AML) for six hours and then injected retro-orbitally into CD45.2 recipient mice. Recipients received sublethal irradiation (475 rads) and 1.5˜3.5×10^5 Lin^−Sca-1^+c-Kit^+ hematopoietic stem cells (HSCs). Mice were monitored for complete cell counts by bleeding retro-orbitally one month post transplantation. Retro-orbital bleeding was performed weekly.
(§2) To obtain the results, isolated female AML cells were treated in vitro with PI3K inhibitors (LY294002 and Wortmannin), Akt inhibitor, MTOR inhibitors (Sapanisertib and Torin1).

[2] = system: P70 S6K; experiment: In vitro treatment of female AML cells: phosphorylation of downstream target P70 S6K; format: cell-based, mouse; settings: isolated female AML cells treated in vitro (FIG. 4A)
Source text: as §1, §2

SMILES	Apoptosis of female AML cells [1]	Phosphorylation of the downstream target P70 S6K [2]
CC(C)n1nc(-c2ccc3oc(N)nc3c2)c2c(N)ncnc21 [Sapanisertib]	induced apoptosis of female AML cells significantly	down-regulated
O=c1cc(N2CCOCC2)oc2c(-c3ccccc3)cccc12 [LY294002]	induced apoptosis of female AML cells significantly	down-regulated
COC[C@H]1OC(=O)c2coc3c2[C@@]1(C)C1=C(C3=O)[C@@H]2CCC(=O)[C@@]2(C)C[C@H]1OC(C)=O [Wortmannin]	induced apoptosis of female AML cells significantly	down-regulated
